In US9193792:
These are yes or no findings as the source states them, for the method shown. Some binding calls cover weakened binding; strength is not graded here. Each block holds one binder with its values, some of them ahead of it.

Chains of the proteins cited; added tags and fusions are not shown. Residues count along the entry.
UniProt P35968, residues 20-764: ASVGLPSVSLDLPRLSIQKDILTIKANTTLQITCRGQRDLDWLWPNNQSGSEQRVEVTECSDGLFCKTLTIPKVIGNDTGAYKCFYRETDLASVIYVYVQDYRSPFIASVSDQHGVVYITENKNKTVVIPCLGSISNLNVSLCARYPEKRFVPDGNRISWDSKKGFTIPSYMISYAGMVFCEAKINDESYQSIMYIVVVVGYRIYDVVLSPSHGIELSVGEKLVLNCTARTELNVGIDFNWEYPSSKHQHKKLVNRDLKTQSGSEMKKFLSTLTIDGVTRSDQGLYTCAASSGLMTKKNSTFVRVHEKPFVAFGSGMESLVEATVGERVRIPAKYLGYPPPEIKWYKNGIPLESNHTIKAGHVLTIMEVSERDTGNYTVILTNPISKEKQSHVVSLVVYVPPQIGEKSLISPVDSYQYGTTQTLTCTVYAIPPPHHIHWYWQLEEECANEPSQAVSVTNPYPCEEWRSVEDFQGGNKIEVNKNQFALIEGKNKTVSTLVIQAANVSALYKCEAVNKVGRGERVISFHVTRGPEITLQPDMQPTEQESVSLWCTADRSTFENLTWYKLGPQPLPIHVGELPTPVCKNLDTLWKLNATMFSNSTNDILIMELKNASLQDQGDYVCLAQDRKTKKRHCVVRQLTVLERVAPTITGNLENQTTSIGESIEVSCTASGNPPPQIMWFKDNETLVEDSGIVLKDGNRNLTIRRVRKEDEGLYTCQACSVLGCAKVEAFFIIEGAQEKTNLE

Target: Recombinant Human (sVEGFR2) sKDR D1-7 (human) (UniProt P35968)
Test: ELISA on coated soluble KDR

binding: binds
B1: KDR2.6 scFv (scFv, not shown: large carriers)
scFv: QVKLQESGPELEKPGASVKISCKASGYAFIGYNMNWVKKSNEKSLEWIGNIDPYYCGTSYNQKFKGKATMTVDESSSTAFMQLKSLTSEDSAVYYCARGTMITTSYAMDYWGQGTTVTVSSGGGSGGGGSGGGGSDIELTQSPAILSASPGEKVTMTCRASSSVSYMHWYQQKPGSSPKPWIYATSNLASGVPARFSGSGSGTSYSLTISRVEAEDAATYSCQQWSSNLLTFGAGTKLEIKRA

binding: binds
B2: KDR1.3 scFv (scFv, V domains shown, not shown: large carriers)
VH: VKLQQSGPSLVKPSQTLSLTCSVTGDSITSGNWNWIRKFPGHKLEYMGYISYSGSTYYNPSLKSRISITRDTSKNQFFLQLNSVTTEDTATYYCARYGGNYFDYWGQGTTVTVSS
